Data as given in publication PMC11427348.
These are yes or no findings as the source states them, for the method shown. In cells and extracts the contact can be indirect. Some entries that bind do so weakly or less than the wild type. For part of these data: Where a sequence is shown, tags or fusion partners need not be part of it.

Sequences of proteins named here, by UniProt entry; tags and fusion partners are left off.
UniProt O60488: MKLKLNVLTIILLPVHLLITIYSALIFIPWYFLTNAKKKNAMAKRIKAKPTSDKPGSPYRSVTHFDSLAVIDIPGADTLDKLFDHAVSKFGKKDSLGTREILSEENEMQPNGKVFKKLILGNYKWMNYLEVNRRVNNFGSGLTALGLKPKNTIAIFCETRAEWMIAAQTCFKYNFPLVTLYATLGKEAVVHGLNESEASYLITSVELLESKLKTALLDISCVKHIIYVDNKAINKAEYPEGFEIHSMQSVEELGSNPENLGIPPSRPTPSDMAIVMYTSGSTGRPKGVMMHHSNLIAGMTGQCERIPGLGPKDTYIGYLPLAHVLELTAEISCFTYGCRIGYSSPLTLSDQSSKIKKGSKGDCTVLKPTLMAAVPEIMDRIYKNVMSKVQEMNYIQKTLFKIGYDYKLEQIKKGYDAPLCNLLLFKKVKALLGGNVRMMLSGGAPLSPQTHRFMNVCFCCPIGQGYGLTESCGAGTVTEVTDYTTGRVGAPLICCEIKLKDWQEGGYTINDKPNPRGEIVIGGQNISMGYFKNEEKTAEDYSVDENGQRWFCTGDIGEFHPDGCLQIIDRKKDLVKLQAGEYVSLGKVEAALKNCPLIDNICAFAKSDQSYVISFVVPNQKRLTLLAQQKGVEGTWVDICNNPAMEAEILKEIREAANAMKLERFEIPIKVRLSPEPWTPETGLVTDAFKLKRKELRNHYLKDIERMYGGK
UniProt Q96LD4: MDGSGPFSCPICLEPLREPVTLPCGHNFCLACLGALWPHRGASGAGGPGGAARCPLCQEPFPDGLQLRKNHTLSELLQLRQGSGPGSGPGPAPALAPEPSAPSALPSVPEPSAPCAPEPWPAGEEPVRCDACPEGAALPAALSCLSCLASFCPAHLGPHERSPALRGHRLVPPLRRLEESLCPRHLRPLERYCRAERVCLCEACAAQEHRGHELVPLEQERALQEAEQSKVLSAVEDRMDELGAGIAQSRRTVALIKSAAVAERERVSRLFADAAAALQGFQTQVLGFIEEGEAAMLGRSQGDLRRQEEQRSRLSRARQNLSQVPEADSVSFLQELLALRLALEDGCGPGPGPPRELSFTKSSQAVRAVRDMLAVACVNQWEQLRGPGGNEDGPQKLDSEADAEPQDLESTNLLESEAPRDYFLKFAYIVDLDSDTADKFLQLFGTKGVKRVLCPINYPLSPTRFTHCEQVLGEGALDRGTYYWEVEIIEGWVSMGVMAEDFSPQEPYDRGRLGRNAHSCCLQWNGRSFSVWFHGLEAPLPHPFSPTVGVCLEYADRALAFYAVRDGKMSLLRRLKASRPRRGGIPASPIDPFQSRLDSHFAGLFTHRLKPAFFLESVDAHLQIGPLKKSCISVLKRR

T1: HA-HERC6 (UniProt Q8IVU3)
T1 sequence: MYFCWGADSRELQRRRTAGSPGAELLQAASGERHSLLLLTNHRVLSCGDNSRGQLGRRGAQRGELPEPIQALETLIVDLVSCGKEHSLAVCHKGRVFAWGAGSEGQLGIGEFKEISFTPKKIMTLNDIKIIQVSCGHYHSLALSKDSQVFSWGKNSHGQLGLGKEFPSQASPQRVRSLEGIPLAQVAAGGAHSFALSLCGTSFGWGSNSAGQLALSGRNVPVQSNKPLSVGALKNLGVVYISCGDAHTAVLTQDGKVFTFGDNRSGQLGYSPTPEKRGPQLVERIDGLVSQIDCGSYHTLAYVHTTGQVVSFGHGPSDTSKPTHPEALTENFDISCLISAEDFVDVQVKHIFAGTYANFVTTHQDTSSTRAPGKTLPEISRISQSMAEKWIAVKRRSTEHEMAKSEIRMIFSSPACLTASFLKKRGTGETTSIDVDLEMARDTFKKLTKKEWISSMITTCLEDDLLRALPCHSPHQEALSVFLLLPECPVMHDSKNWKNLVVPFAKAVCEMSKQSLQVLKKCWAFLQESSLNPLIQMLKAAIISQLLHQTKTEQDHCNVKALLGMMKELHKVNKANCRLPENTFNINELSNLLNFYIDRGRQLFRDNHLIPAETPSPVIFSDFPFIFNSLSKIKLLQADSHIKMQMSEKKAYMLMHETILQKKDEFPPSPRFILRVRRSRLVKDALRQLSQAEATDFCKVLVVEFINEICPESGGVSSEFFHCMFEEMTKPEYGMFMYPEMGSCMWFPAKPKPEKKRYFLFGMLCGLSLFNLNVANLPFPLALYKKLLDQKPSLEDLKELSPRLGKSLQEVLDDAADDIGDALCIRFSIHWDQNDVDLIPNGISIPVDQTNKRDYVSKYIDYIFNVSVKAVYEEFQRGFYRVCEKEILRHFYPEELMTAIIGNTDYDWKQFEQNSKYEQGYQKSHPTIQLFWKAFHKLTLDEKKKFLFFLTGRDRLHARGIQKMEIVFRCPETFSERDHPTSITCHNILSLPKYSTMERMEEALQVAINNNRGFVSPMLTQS


Columns and labels:
[1] = molecular target: Acyl-CoA synthetase long chain family member 4 (ACSL4), endogenous in HONE1 cells (human (endogenous in HONE1)) (UniProt O60488); assay: co-IP; endogenous proteins in lysates of HONE1 TRCs and bulk cells; immunoprecipitation overnight at 4 °C, Protein A/G magnetic beads, immunoblotting
HA-HERC6 = molecular target: T1, HA-HERC6; assay: co-IP; HEK293T cells transfected with Flag-PCK2 and HA-HERC6 or HA-TRIM47; immunoprecipitation and immunoblot
HA-TRIM47 = HA-TRIM47 (UniProt Q96LD4); assay: as above

| Binder | binding [1] | binding (HA-HERC6) | binding (HA-TRIM47) |
| --- | --- | --- | --- |
| Mitochondrial phosphoenolpyruvate carboxykinase 2 (PCK2), endogenous in HONE1 cells (protein, UniProt Q16822 33-640) LSGDLGQLPTGIRDFVEHSARLCQPEGIHICDGTEAENTATLTLLEQQGLIRKLPKYNNCWLARTDPKDVARVESKTVIVTPSQRDTVPLPPGGARGQLGNWMSPADFQRAVDERFPGCMQGRTMYVLPFSMGPVGSPLSRIGVQLTDSAYVVASMRIMTRLGTPVLQALGDGDFVKCLHSVGQPLTGQGEPVSQWPCNPEKTLIGHVPDQREIISFGSGYGGNSLLGKKCFALRIASRLARDEGWLAEHMLILGITSPAGKKRYVAAAFPSACGKTNLAMMRPALPGWKVECVGDDIAWMRFDSEGRLRAINPENGFFGVAPGTSATTNPNAMATIQSNTIFTNVAETSDGGVYWEGIDQPLPPGVTVTSWLGKPWKPGDKEPCAHPNSRFCAPARQCPIMDPAWEAPEGVPIDAIIFGGRRPKGVPLVYEAFNWRHGVFVGSAMRSESTAAAEHKGKIIMHDPFAMRPFFGYNFGHYLEHWLSMEGRKGAQLPRIFHVNWFRRDEAGHFLWPGFGENARVLDWICRRLEGEDSARETPIGLVPKEGALDLSGLRAIDTTQLFSLPKDFWEQEVRDIRSYLTEQVNQDLPKEVLAELEALERRVHKM | binds |  |  |
| Flag-PCK2 (protein, UniProt Q16822 33-640) LSGDLGQLPTGIRDFVEHSARLCQPEGIHICDGTEAENTATLTLLEQQGLIRKLPKYNNCWLARTDPKDVARVESKTVIVTPSQRDTVPLPPGGARGQLGNWMSPADFQRAVDERFPGCMQGRTMYVLPFSMGPVGSPLSRIGVQLTDSAYVVASMRIMTRLGTPVLQALGDGDFVKCLHSVGQPLTGQGEPVSQWPCNPEKTLIGHVPDQREIISFGSGYGGNSLLGKKCFALRIASRLARDEGWLAEHMLILGITSPAGKKRYVAAAFPSACGKTNLAMMRPALPGWKVECVGDDIAWMRFDSEGRLRAINPENGFFGVAPGTSATTNPNAMATIQSNTIFTNVAETSDGGVYWEGIDQPLPPGVTVTSWLGKPWKPGDKEPCAHPNSRFCAPARQCPIMDPAWEAPEGVPIDAIIFGGRRPKGVPLVYEAFNWRHGVFVGSAMRSESTAAAEHKGKIIMHDPFAMRPFFGYNFGHYLEHWLSMEGRKGAQLPRIFHVNWFRRDEAGHFLWPGFGENARVLDWICRRLEGEDSARETPIGLVPKEGALDLSGLRAIDTTQLFSLPKDFWEQEVRDIRSYLTEQVNQDLPKEVLAELEALERRVHKM |  | binds | no binding |
